The values below come from the supplement of paper PMC11732987, “Enantioselective OTUD7B fragment discovery through chemoproteomics screening and high-throughput optimisation” (Communications Chemistry, 2025).

Amino acid sequences for entries named in this document (tags omitted). A change or cut given only in a name is not applied to a line headed by its entry. Residues count along the entry.
UniProt Q8TBF5: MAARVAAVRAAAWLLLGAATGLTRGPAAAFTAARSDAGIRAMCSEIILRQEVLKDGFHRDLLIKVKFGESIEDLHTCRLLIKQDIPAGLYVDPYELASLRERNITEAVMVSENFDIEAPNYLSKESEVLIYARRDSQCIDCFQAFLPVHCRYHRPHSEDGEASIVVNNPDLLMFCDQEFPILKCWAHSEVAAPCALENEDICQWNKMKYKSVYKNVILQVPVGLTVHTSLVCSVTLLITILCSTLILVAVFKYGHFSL
UniProt Q9H9Y6, whole entry, looked up: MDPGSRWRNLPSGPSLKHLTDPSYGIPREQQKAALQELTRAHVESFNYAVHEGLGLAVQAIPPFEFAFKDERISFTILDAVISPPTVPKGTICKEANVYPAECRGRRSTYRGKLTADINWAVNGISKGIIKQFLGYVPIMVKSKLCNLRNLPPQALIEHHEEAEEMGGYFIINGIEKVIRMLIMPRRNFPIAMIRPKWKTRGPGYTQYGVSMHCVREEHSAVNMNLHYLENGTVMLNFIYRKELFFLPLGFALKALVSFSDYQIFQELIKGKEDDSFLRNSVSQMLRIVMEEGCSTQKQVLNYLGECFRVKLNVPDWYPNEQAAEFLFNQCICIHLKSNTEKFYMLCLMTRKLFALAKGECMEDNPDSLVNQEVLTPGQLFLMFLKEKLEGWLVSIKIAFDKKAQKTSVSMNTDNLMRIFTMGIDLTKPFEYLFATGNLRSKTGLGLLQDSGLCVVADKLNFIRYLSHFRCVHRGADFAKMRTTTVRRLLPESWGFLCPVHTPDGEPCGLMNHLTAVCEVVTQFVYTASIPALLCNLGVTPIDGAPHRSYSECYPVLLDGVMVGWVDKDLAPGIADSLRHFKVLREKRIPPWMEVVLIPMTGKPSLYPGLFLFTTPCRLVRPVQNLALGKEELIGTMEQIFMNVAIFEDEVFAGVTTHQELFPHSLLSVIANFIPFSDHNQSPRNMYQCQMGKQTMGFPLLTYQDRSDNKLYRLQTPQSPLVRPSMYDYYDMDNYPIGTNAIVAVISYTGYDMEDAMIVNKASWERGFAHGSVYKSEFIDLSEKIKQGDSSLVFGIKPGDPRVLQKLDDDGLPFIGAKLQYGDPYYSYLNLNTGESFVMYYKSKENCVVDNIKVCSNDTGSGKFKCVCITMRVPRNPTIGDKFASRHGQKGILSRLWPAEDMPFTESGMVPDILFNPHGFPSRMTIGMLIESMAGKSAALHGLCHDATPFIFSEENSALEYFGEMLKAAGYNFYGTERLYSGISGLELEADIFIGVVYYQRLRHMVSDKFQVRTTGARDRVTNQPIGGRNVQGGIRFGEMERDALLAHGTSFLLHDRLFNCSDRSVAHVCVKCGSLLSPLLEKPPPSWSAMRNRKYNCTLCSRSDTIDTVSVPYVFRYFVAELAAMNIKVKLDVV
UniProt P78337, 66-86: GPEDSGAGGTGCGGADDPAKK
UniProt Q9H8W4: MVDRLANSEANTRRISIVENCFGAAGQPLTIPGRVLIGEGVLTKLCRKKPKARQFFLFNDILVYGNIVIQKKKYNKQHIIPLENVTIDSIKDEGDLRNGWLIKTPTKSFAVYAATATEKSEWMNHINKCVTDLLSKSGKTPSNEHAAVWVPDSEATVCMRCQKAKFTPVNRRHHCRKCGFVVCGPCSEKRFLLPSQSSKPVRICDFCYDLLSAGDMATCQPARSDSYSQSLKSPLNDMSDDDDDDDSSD
UniProt P78356: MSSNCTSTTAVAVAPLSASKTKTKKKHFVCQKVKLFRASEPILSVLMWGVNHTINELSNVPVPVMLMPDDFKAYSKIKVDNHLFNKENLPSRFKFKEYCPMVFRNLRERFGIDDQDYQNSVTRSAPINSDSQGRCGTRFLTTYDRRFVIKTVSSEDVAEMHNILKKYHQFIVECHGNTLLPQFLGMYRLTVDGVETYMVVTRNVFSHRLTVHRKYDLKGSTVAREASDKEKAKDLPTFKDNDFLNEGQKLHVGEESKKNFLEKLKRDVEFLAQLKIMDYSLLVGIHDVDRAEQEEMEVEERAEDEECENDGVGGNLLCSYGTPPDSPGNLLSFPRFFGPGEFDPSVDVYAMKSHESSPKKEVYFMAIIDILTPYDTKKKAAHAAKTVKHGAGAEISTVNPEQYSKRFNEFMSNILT
UniProt Q6P5Z2: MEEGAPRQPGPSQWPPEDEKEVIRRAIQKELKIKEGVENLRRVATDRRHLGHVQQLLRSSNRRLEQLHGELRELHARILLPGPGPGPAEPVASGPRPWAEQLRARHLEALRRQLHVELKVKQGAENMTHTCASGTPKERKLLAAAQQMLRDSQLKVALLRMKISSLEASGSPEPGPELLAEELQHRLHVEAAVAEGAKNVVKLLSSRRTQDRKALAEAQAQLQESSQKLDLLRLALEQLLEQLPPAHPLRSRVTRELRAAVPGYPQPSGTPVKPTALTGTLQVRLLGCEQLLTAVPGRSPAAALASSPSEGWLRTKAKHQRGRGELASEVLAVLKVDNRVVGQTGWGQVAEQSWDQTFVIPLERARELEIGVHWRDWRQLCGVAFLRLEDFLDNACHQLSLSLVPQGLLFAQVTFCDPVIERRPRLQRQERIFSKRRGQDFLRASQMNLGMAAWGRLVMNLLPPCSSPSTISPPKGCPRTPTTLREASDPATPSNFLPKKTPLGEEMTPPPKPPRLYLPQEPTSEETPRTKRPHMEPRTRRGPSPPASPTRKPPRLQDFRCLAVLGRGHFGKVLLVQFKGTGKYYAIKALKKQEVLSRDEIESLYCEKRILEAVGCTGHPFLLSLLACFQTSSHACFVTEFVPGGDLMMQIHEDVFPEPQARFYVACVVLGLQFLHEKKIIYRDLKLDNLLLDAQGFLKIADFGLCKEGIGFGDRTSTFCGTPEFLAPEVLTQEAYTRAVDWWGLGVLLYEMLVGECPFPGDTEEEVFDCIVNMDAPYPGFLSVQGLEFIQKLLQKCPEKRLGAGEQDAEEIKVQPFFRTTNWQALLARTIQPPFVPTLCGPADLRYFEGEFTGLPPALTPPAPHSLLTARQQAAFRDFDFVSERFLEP
UniProt Q07864, whole entry, looked up: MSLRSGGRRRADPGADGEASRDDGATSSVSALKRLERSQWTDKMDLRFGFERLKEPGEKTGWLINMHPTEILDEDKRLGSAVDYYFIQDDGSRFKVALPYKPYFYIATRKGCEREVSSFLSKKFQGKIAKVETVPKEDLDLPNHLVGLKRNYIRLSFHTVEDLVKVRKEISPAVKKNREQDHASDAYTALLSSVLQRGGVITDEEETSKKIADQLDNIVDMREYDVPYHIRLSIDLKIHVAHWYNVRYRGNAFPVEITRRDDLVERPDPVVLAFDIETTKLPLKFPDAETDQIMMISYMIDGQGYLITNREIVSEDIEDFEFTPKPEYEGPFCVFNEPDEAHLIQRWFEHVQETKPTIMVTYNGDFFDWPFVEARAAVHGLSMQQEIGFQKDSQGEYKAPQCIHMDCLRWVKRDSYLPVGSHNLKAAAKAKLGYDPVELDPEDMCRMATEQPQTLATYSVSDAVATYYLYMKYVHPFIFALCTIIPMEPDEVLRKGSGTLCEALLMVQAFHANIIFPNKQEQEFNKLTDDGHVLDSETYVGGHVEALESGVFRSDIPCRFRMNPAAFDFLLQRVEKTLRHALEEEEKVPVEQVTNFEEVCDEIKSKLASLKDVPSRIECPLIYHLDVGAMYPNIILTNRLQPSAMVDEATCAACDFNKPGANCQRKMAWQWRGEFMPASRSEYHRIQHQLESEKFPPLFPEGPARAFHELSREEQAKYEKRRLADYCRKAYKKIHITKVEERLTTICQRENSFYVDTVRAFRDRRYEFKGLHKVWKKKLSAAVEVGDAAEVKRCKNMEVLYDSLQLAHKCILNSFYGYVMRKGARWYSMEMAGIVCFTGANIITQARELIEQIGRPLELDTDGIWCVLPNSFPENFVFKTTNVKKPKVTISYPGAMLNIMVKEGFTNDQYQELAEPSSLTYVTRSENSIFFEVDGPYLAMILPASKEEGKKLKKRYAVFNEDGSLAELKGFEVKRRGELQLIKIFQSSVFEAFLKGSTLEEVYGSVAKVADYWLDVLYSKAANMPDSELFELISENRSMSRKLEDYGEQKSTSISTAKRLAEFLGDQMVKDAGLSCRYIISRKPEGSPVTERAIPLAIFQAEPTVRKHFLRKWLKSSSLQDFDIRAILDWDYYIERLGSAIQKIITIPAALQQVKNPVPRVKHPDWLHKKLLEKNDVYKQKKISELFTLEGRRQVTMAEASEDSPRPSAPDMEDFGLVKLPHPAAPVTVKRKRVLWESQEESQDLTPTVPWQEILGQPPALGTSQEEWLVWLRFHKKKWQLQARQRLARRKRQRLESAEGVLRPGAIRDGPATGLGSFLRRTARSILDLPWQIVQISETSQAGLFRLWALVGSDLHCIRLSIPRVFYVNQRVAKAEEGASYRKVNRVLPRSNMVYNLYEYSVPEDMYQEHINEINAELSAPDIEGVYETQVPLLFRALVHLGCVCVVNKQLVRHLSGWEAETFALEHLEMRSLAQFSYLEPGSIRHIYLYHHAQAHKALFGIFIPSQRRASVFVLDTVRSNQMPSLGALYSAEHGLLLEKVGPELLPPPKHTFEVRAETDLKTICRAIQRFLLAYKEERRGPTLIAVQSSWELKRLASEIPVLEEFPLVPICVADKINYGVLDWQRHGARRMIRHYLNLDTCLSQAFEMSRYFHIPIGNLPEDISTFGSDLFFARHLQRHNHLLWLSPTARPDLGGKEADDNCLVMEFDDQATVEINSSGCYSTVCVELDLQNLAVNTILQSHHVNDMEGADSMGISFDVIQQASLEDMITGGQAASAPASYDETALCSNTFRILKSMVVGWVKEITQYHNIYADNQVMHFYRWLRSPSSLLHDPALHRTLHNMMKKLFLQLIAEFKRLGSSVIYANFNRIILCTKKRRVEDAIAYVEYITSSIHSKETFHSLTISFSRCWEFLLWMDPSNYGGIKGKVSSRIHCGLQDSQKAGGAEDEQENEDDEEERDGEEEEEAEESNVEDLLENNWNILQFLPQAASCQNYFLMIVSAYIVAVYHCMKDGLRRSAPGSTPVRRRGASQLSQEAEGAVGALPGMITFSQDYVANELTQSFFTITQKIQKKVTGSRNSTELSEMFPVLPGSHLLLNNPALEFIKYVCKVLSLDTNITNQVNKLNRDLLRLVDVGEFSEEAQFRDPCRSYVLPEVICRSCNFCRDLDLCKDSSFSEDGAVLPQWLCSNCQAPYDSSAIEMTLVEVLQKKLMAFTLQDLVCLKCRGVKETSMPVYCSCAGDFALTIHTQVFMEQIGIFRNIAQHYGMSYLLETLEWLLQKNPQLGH
UniProt Q9BTU6: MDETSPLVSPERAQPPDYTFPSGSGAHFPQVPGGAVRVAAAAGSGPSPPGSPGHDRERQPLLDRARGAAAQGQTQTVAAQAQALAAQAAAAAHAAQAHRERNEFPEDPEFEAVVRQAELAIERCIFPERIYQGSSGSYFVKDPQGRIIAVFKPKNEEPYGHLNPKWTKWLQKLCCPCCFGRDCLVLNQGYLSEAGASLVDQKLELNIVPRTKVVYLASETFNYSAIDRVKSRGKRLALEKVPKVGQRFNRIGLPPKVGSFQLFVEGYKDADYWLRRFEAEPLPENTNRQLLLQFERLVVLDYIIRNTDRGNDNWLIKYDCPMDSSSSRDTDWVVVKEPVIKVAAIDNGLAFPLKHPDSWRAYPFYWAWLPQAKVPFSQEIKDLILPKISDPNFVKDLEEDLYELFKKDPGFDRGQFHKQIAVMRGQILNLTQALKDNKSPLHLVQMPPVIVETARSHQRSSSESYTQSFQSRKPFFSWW
UniProt Q5SRE7: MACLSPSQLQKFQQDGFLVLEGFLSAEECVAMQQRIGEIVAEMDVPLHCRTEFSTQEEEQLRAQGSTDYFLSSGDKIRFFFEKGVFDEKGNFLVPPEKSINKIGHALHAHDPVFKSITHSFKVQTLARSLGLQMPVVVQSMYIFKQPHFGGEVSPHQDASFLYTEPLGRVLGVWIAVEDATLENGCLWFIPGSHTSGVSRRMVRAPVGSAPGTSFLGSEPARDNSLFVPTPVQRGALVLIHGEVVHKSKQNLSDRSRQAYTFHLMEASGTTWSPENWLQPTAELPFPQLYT

Compound in assay [1]: ClCC(=O)N[C@@H]1CCCc2ccccc12
Kind of assay: log2 mean competition ratio of IA-DTB cysteine labelling (DMSO/compound) (log2 ratio); higher = stronger cysteine engagement by compound. Particulars: treatment time: 4 h, cell line lysate: HEK293T. Here is the method: (§1)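 IA-DTB competitive cysteine chemoproteomics in HEK293T RIPA lysate. Lysates were treated with compound 29 or 30 at 50 or 200 µM for 4 h, then IA-DTB (500 µM, 1 h), trypsin-digested, NeutrAvidin-enriched and analysed by diaPASEF. Competition ratio = intensity DMSO / intensity compound (n=4 treated, n=64 DMSO); binding: mean log2 CR ≥ 1 and p ≤ 0.05 plus QC filters. Target is the cysteine site.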

Compound in assay [2]: ClCC(=O)N[C@H]1CCCc2ccccc12
The description is as above. The note with it: treatment time: 4 h, cell line lysate: HEK293T. Here is the method: as §1

Some of the results follow. The data scatter; read single values as rough.

PIGX C77 (UniProt Q8TBF5): the “log2 mean competition ratio” value was 0.19 in assay [1] (50 µM), 0.335 in assay [1] (200 µM), 0.019 in assay [2] (50 µM) and -0.0651 in assay [2] (200 µM).

As for PLCE1 C375, the “log2 mean competition ratio” value in assay [1] (50 µM) is -0.072; in assay [1] (200 µM), -0.191; in assay [2] (50 µM) it was -0.416; in assay [2] (200 µM), -0.151.

As to POLR1B C307 (UniProt Q9H9Y6), the “log2 mean competition ratio” value in assay [1] (50 µM) was -0.103; in assay [1] (200 µM), -0.0204; in assay [2] (50 µM) it was -0.058; in assay [2] (200 µM) it was -0.00689.

For the target PLK1 C67 (UniProt P53350), the “log2 mean competition ratio” value in assay [1] (50 µM) worked out at 0.392; in assay [1] (200 µM), 0.0497; in assay [2] (50 µM) it was 0.0732; in assay [2] (200 µM), 0.00947.

As to PLAT C492, the “log2 mean competition ratio” value in assay [1] (50 µM) is -0.0488; in assay [1] (200 µM), 0.313; in assay [2] (50 µM), 0.00105; in assay [2] (200 µM), 0.368.

For POLR1G C150, the “log2 mean competition ratio” value in assay [1] (50 µM) is 0.3; in assay [1] (200 µM), -0.138; in assay [2] (50 µM), 0.324; in assay [2] (200 µM) it was -0.0505.

As for PITX1 C77 (UniProt P78337), the “log2 mean competition ratio” value in assay [1] (50 µM) was -0.159; in assay [1] (200 µM), 0.2; in assay [2] (50 µM) it was -0.0708; in assay [2] (200 µM), -0.352.

Regarding PNKP C308 (UniProt Q96T60), the “log2 mean competition ratio” value in assay [1] (50 µM) is -0.149; in assay [1] (200 µM) it was 0.0704; in assay [2] (50 µM) it was 0.129; in assay [2] (200 µM) it was 0.3.

For the target PHKA1 C844 (UniProt P46020), the “log2 mean competition ratio” value in assay [1] (50 µM) is -0.377; in assay [1] (200 µM) it was 0.0662; in assay [2] (50 µM) it was -0.812; in assay [2] (200 µM) it was 0.0129.

Regarding PMS1 C457 (UniProt P54277), the “log2 mean competition ratio” value in assay [1] (50 µM) was 0.402; in assay [1] (200 µM) it was 0.0108; in assay [2] (50 µM), 0.684; in assay [2] (200 µM), 0.205.

Turning to PNO1 C226 (UniProt Q9NRX1), the “log2 mean competition ratio” value in assay [1] (50 µM) is 0.0866; in assay [1] (200 µM), -0.1; in assay [2] (50 µM), -0.049; in assay [2] (200 µM), -0.00145.

Consider PLEKHA5 C249 (UniProt Q9HAU0), for which the “log2 mean competition ratio” value in assay [1] (50 µM) is 0.431; in assay [1] (200 µM), -0.178; in assay [2] (50 µM), 0.242; in assay [2] (200 µM), -0.25.

For the target PLEKHF2 C129 (UniProt Q9H8W4), the “log2 mean competition ratio” value was 0.0582 in assay [1] (50 µM), -0.235 in assay [1] (200 µM), -0.278 in assay [2] (50 µM) and 0.0514 in assay [2] (200 µM).

Regarding PIP4K2B C5 (UniProt P78356), the “log2 mean competition ratio” value in assay [1] (50 µM) was 0.299; in assay [1] (200 µM), -0.112; in assay [2] (50 µM) it was 0.349; in assay [2] (200 µM), -0.0629.

Consider PKN3 C706 (UniProt Q6P5Z2), for which the “log2 mean competition ratio” value in assay [1] (50 µM) is -0.0492; in assay [1] (200 µM), 0.232; in assay [2] (50 µM), -0.113; in assay [2] (200 µM), 0.293.

PLEKHO1 C269: the “log2 mean competition ratio” value in assay [1] (50 µM) was -0.342; in assay [1] (200 µM), 0.316; in assay [2] (50 µM), -0.123; in assay [2] (200 µM), 0.4.

PIGQ C247 (UniProt Q9BRB3): the “log2 mean competition ratio” value in assay [1] (50 µM) was -0.205; in assay [1] (200 µM) it was 0.0428; in assay [2] (50 µM), -0.225; in assay [2] (200 µM) it was -0.128.

In the case of PKN3 C840 (UniProt Q6P5Z2), the “log2 mean competition ratio” value in assay [1] (50 µM) is -0.128; in assay [1] (200 µM), 0.0121; in assay [2] (50 µM) it was -0.0526; in assay [2] (200 µM), 0.0431.

For the target POLE C1076 (UniProt Q07864), the “log2 mean competition ratio” value in assay [1] (50 µM) was -0.322; in assay [1] (200 µM), 0.112; in assay [2] (50 µM), -0.227; in assay [2] (200 µM), 0.139.

In the case of PODXL C344 (UniProt O00592), the “log2 mean competition ratio” value in assay [1] (50 µM) is -0.226; in assay [1] (200 µM), 0.0377; in assay [2] (50 µM), -0.311; in assay [2] (200 µM) it was 0.0375.

Consider PI4K2A C320 (UniProt Q9BTU6), for which the “log2 mean competition ratio” value in assay [1] (50 µM) is 0.347; in assay [1] (200 µM), -0.133; in assay [2] (50 µM), 0.443; in assay [2] (200 µM) it was -0.0718.

PIBF1 C199 (UniProt Q8WXW3): the “log2 mean competition ratio” value was -0.289 in assay [1] (50 µM), -0.54 in assay [1] (200 µM), 0.475 in assay [2] (50 µM) and -0.19 in assay [2] (200 µM).

Turning to PHYHD1 C49 (UniProt Q5SRE7), the “log2 mean competition ratio” value is 0.11 in assay [1] (50 µM), 0.222 in assay [1] (200 µM), -0.218 in assay [2] (50 µM) and 0.236 in assay [2] (200 µM).

Regarding PHKG2 C176 (UniProt P15735), the “log2 mean competition ratio” value in assay [1] (50 µM) is 0.216; in assay [1] (200 µM) it was 0.392; in assay [2] (50 µM) it was -0.21; in assay [2] (200 µM) it was 0.248.
